Results as given in the supplement of paper PMC10849652.
The other results are listed elsewhere or left out.

Chains of the proteins cited; added tags and fusions are not shown. Lines headed by an entry give the natural chain unless they say otherwise; changes in a name come on top.
UniProt Q9BSH5: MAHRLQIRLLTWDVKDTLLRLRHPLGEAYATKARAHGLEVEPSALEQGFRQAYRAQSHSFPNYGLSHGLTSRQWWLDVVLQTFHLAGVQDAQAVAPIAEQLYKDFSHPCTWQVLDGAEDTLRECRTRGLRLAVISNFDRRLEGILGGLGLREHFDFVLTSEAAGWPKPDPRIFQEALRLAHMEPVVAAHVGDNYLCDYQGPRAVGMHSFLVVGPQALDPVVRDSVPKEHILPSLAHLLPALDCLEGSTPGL
UniProt O14929: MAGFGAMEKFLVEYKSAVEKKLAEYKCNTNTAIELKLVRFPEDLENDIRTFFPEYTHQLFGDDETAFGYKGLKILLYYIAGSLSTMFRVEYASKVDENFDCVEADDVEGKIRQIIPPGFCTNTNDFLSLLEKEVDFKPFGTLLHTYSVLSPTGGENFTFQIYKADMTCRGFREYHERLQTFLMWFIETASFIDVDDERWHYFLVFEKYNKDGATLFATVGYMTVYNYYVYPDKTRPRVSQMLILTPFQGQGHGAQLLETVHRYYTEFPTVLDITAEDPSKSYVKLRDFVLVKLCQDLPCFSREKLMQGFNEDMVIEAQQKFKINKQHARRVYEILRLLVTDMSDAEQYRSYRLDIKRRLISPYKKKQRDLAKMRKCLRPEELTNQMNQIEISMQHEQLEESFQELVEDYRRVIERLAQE
UniProt Q9Y3E1: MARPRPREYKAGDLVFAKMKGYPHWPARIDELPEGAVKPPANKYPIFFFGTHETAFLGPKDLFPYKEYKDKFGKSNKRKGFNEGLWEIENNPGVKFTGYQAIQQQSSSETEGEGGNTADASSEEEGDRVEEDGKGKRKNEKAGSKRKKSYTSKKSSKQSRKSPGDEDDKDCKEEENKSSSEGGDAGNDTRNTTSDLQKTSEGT
UniProt Q6AI08: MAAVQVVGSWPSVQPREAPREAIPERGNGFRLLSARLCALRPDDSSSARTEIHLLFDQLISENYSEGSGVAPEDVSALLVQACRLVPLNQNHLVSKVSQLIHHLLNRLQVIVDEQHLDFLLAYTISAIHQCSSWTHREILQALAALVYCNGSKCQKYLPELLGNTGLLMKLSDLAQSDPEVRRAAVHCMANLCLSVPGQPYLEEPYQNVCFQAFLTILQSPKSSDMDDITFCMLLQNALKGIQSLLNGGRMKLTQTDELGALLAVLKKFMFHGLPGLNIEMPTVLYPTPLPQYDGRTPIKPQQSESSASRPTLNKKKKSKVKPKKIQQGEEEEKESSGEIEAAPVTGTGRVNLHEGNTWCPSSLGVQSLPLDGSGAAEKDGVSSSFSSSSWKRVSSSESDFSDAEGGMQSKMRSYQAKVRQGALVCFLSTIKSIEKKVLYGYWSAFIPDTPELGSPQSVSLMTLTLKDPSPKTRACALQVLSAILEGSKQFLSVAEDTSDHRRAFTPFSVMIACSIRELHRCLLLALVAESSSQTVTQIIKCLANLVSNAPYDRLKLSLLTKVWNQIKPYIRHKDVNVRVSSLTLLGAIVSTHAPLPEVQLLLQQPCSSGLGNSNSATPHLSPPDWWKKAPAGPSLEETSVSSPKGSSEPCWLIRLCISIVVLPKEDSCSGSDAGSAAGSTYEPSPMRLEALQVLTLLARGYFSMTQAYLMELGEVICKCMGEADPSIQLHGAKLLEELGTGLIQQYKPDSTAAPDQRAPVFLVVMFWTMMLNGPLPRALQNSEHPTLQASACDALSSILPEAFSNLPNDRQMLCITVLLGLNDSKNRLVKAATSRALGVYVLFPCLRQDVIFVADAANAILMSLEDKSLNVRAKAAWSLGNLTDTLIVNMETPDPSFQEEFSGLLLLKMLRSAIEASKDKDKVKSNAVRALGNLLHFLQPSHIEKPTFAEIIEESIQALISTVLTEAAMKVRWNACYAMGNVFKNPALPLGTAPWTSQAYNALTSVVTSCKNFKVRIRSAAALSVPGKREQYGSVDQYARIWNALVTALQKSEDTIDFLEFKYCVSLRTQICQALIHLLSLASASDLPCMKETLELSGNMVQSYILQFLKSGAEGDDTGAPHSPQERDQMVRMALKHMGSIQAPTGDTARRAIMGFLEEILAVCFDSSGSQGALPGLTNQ
UniProt P69891: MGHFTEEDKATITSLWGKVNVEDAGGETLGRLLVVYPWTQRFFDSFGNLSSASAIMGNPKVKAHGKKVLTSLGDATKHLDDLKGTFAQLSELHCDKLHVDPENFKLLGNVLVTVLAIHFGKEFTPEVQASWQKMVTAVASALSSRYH
UniProt P02042: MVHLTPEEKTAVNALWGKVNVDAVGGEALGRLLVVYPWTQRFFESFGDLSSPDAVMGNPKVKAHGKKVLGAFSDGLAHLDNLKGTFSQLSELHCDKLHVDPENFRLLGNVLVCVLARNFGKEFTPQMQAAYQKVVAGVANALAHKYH
UniProt P04921: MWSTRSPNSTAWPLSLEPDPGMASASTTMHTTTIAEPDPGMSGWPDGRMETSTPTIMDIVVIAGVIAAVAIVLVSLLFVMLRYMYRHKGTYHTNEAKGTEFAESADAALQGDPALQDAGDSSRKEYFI
UniProt P29083: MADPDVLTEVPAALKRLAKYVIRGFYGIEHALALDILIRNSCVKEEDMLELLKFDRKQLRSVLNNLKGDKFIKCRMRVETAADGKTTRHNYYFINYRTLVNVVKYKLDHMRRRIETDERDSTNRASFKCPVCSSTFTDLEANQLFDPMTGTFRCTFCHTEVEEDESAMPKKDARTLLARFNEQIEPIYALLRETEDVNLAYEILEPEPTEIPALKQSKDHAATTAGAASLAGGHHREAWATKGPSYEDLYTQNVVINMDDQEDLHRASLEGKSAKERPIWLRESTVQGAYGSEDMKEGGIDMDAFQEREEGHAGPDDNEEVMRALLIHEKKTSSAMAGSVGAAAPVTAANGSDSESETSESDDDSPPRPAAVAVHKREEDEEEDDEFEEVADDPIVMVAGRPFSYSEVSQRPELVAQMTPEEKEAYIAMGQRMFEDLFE
UniProt P12081: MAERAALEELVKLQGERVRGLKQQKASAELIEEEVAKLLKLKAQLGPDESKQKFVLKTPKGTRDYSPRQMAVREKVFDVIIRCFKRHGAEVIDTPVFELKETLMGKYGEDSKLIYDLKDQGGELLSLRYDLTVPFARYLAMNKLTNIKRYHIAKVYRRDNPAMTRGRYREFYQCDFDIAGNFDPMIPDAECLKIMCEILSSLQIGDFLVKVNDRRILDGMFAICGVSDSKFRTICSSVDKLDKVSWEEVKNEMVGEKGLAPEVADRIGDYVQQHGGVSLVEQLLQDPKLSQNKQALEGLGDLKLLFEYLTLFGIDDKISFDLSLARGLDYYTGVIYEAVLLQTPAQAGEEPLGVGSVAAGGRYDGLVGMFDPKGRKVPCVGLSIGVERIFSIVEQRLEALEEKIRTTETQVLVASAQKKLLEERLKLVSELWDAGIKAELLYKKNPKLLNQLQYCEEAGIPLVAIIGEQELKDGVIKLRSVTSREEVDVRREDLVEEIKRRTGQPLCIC
UniProt P16403, whole entry, looked up: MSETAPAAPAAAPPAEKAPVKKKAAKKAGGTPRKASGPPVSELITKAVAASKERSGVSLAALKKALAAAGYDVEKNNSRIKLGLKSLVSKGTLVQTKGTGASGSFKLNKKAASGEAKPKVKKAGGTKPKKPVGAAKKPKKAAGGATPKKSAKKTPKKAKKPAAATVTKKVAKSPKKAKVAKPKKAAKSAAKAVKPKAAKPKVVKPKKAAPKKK
UniProt Q16836: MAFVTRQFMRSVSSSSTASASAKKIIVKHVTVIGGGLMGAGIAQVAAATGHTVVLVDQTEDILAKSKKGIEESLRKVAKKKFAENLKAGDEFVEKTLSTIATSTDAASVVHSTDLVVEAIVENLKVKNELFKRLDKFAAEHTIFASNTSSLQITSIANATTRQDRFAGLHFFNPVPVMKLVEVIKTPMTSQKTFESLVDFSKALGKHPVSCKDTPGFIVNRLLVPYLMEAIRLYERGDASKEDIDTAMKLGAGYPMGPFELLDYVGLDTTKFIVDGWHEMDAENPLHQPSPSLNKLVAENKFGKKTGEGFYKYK
UniProt P13807: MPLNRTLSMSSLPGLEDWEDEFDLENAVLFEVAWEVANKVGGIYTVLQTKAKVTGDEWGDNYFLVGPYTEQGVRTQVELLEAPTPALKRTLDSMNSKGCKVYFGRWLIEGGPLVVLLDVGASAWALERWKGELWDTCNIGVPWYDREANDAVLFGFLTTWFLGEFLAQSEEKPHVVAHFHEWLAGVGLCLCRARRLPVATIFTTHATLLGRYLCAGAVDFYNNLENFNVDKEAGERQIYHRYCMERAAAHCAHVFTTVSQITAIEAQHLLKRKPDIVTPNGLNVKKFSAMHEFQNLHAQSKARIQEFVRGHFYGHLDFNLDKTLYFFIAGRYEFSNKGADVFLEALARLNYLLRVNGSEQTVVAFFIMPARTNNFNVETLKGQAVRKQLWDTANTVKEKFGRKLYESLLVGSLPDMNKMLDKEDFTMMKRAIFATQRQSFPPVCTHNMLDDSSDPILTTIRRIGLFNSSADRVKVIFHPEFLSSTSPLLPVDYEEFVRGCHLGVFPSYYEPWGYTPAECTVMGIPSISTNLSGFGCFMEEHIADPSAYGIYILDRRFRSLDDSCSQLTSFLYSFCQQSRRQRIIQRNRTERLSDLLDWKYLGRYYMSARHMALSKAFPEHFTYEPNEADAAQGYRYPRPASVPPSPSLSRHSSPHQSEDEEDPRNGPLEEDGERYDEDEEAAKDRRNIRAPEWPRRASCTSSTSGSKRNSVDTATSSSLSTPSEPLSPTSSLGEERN
UniProt P06865: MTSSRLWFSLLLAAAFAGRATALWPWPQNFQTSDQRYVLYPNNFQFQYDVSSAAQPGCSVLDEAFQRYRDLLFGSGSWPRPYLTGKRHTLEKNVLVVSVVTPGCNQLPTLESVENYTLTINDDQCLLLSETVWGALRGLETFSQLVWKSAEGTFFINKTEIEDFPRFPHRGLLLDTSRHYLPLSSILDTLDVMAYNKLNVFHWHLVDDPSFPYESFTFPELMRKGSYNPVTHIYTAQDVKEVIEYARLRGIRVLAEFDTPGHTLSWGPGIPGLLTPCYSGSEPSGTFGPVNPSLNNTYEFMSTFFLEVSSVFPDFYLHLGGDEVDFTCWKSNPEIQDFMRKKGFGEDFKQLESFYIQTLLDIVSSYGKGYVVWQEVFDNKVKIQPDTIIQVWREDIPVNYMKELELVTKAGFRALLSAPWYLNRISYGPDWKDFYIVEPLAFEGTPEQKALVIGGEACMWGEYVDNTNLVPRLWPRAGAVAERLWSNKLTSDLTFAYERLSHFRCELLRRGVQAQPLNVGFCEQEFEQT

Tests used:
Test in all cases: log2 fold change, soluble protein after heating vs DMSO (PISA); higher = thermal stabilisation; K562 cells, 10 uM, 30 min; active = over 0.2 and 3.5 SD of the protein, either way, in both replicates (recomputed)
erlotinib = compound: C#Cc1cccc(Nc2ncnc3cc(OCCOC)c(OCCOC)cc23)c1 [erlotinib]
In short: (§1)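 K562 cells at 2×10^6 cells/mL were given 10 μM compound for 30 min. Aliquots then went through 3 min of heating across 48°C-58°C, were pooled, and were extracted in PBS with 0.5% NP-40 at 4°C, and the supernatant after 21,000xg for 90 min was quantified by TMTpro 16plex LC-MS/MS with channel sums equalised. Thermal stability relative to control samples, from duplicates, is given as log2 fold change.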

[1] = compound: C/C(=N\NC(=O)C1=CC(=CC=C1)S(=O)(=O)N2CCOCC2)/C3=C(C=CC(=C3)Cl)O
In short: as §1

[2] = compound: C1=CC(=C(C=C1Cl)C2=NC3=NC=CN=C3C(=N2)NC4=CC=NC=C4)F
In short: as §1

[3] = compound: C1=CC(=CC=C1C2=NC3=C(N2)C=C(C=C3)C(=O)N)OC4=CC=C(C=C4)Cl
In short: as §1

[4] = compound: C1=CC2=C(C=CC(=C2)/C=C\3/C(=O)NC(=NCC4=CC=CS4)S3)N=C1
In short: as §1

[5] = compound: C1=CC2=NC=CN=C2C=C1/C=C/3\C(=O)NC(=O)S3
In short: as §1

[6] = compound: C1=CC=C(C=C1)C2=NC(=C(N2)C3=CC=NC=C3)C4=CC(=C(C=C4)Cl)O
In short: as §1

[7] = compound: C1=CC=C2C(=C1)C3=NNC4=CC=CC(=C43)C2=O
In short: as §1

[8] = compound: C1CCN(C1)C(=O)NC2=CC=CC(=C2)NC3=NC=C(C(=N3)NCCC4=CN=CN4)Br
In short: as §1

[9] = compound: C1CN(CCC1(CC2=CC=C(C=C2)Cl)N)C3=NC=NC4=C3C=CN4
In short: as §1

Measured: log2 fold change

HDHD3 (UniProt Q9BSH5)
inactive: erlotinib 0.02 | [1] 0.089 | [2] 0.043 | [3] 0.005 | [4] 0.083 | [5] 0.043 | [6] -0.061 | [7] 0.017 | [8] -0.013 | [9] 0.044

HAT1 (UniProt O14929)
inactive: erlotinib -0.048 | [1] 0.036 | [2] 0.044 | [3] 0.048 | [4] -0.075 | [5] -0.045 | [6] 0.03 | [7] 0.027 | [8] -0.055 | [9] 0.069

HDGFL3 (UniProt Q9Y3E1)
inactive: erlotinib 0.013 | [1] -0.016 | [2] -0.01 | [3] 0.095 | [4] 0.042 | [5] 0.007 | [6] -0.081 | [7] -0.006 | [8] 0.072 | [9] -0.023

HEATR6 (UniProt Q6AI08)
inactive: erlotinib 0.013 | [1] 0 | [2] 0.06 | [3] 0.007 | [4] 0.056 | [5] -0.105 | [6] 0.015 | [7] 0.034 | [8] 0.066 | [9] -0.149

HBG1 (UniProt P69891)
inactive: erlotinib -0.026 | [1] 0.015 | [2] 0.184 | [3] 0.039 | [4] 0.077 | [5] 0.009 | [6] 0.088 | [7] -0.009 | [8] -0.03 | [9] 0.033

HBD (UniProt P02042)
inactive: erlotinib -0.007 | [1] 0 | [2] 0.209 | [3] 0.008 | [4] 0.058 | [5] 0.025 | [6] 0.108 | [7] -0.017 | [8] 0 | [9] -0.065

Three neighbouring records already listed:
HAT1 (UniProt O14929)
inactive: erlotinib -0.048 | [1] 0.036 | [2] 0.044 | [3] 0.048 | [4] -0.075 | [5] -0.045 | [6] 0.03 | [7] 0.027 | [8] -0.055 | [9] 0.069

HDGFL3 (UniProt Q9Y3E1)
inactive: erlotinib 0.013 | [1] -0.016 | [2] -0.01 | [3] 0.095 | [4] 0.042 | [5] 0.007 | [6] -0.081 | [7] -0.006 | [8] 0.072 | [9] -0.023

HEATR6 (UniProt Q6AI08)
inactive: erlotinib 0.013 | [1] 0 | [2] 0.06 | [3] 0.007 | [4] 0.056 | [5] -0.105 | [6] 0.015 | [7] 0.034 | [8] 0.066 | [9] -0.149

Remaining list, next part

GYPC (UniProt P04921)
inactive: erlotinib -0.158 | [1] -0.19 | [2] 0.064 | [3] 0.13 | [4] 0.11 | [5] 0.03 | [6] -0.288 | [7] 0.069 | [8] -0.093 | [9] 0.056

GTF2E1 (UniProt P29083)
inactive: erlotinib 0.067 | [1] 0.145 | [2] 0.046 | [3] -0.002 | [4] 0.094 | [5] 0.007 | [6] 0.025 | [7] 0.039 | [8] -0.076 | [9] 0.017

HARS (UniProt P12081)
inactive: erlotinib -0.011 | [1] -0.001 | [2] 0.034 | [3] -0.007 | [4] -0.01 | [5] 0.014 | [6] -0.025 | [7] -0.019 | [8] 0.026 | [9] 0.036

H1-2 (UniProt P16403)
inactive: erlotinib -0.165 | [1] -0.202 | [2] -0.263 | [3] 0.025 | [4] -0.028 | [5] -0.014 | [6] 0 | [7] 0.044 | [8] -0.055 | [9] -0.331

HADH isoform 2 (UniProt Q16836)
inactive: erlotinib 0.006 | [1] 0.008 | [2] 0.082 | [3] 0.047 | [4] 0.005 | [5] 0 | [6] -0.017 | [7] 0.05 | [8] -0.009 | [9] 0.028

HAGH (UniProt Q16775)
inactive: erlotinib 0.031 | [1] -0.13 | [2] -0.067 | [3] 0.018 | [4] 0.071 | [5] 0.011 | [6] -0.005 | [7] 0.015 | [8] 0.008 | [9] 0.032

GYS1 (UniProt P13807)
inactive: erlotinib -0.022 | [1] -0.104 | [2] -0.345 | [3] -0.066 | [4] -0.071 | [5] -0.003 | [6] -0.14 | [7] 0.176 | [8] -0.021 | [9] -0.069

HEXA (UniProt P06865)
inactive: erlotinib 0.012 | [1] -0.012 | [2] 0.013 | [3] 0.007 | [4] 0.024 | [5] 0.004 | [6] -0.003 | [7] -0.023 | [8] 0.01 | [9] 0.007
